At least one structure is not confirmed: it was looked up by name or label, or the drawing left a doubt.
Columns and labels:
[1] = test system: hydroxy-acid dehydrogenase (enzyme solution) of L. casei ssp. tolerans DSM 20 258; experiment: Selection of a suitable enzyme: initial reaction rate with keto acid, NADH absorption at 340 nm; assay type: biochemical; details: 0.15 mM keto acid, 0.2 mM NADH, pH 7.0
Protocol: (§1) The species Lactobacillus casei is currently divided into five subgroups (subspecies). […] The three keto acids KIC, KMV and KIV were used in a concentration of 0.15 mM (final concentration in the assay).
(§2) For the assay mixture, the microorganisms which had been cultured under customary conditions were harvested, the cells were disrupted by mechanical action, and the supernatant obtained by centrifugation was used as "enzyme solution" for the assay.
(§3) The assay mixture contained:
(§4) 0.1M potassium phosphate buffer, pH 7.0;
(§5) 0.020 ml of enzyme solution (0.1-0.2 mg of protein);
(§6) The initial reaction rate was determined by measuring the absorption at 340 nm as a function of time. (The reaction rate is reported in international units (IU)/min.) The results obtained are summarized below.

[2] = test system: hydroxy-acid dehydrogenase (enzyme solution) of L. case ssp. alactosus DSM 20 020; experiment: as above; assay type: biochemical; details: 0.15 mM keto acid, 0.2 mM NADH, pH 7.0
Protocol: as §1, §2, §3, §4, §5, §6

[3] = biological target: T1, hydroxy-acid dehydrogenase (enzyme solution) of L. confusus DSM 20 196 (Weissella confusa, UniProt P14295); experiment: as above; assay type: biochemical; details: 0.15 mM keto acid, 0.2 mM NADH, pH 7.0
T1 sequence (P14295 1-310): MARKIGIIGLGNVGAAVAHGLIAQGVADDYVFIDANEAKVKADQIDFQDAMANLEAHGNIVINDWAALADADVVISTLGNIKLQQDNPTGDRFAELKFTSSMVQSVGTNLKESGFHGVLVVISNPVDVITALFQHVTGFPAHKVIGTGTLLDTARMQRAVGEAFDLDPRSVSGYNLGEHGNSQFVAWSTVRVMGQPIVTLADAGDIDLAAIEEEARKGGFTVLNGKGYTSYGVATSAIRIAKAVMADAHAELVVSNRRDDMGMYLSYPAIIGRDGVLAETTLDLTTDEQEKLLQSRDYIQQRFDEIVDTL
Protocol: (§7) The species Lactobacillus casei is currently divided into five subgroups (subspecies). […] The three keto acids KIC, KMV and KIV were used in a concentration of 0.15 mM (final concentration in the assay). […] For the assay mixture, the microorganisms which had been cultured under customary conditions were harvested, the cells were disrupted by mechanical action, and the supernatant obtained by centrifugation was used as "enzyme solution" for the assay. Besides the various Lactobacillus casei strains, other Lactobacillus strains were also investigated; two typical representatives are listed in a table below. The assay mixture contained: 0.1M potassium phosphate buffer, pH 7.0; 0.2 mM NADH; 0.020 ml of enzyme solution (0.1-0.2 mg of protein); 0.15 mM keto acid (as shown in the table). The initial reaction rate was determined by measuring the absorption at 340 nm as a function of time. (The reaction rate is reported in international units (IU)/min.) The results obtained are summarized below.

[4] = biological target: T2, hydroxy-acid dehydrogenase (enzyme solution) of L. casei ssp. pseudoplantarum DSM 20 207 (Lacticaseibacillus paracasei, UniProt P17584); experiment: as above; assay type: biochemical, Lactobacillus casei ssp. pseudoplantarum; details: 0.15 mM keto acid, 0.2 mM NADH, pH 7.0
T2 sequence (P17584 1-333): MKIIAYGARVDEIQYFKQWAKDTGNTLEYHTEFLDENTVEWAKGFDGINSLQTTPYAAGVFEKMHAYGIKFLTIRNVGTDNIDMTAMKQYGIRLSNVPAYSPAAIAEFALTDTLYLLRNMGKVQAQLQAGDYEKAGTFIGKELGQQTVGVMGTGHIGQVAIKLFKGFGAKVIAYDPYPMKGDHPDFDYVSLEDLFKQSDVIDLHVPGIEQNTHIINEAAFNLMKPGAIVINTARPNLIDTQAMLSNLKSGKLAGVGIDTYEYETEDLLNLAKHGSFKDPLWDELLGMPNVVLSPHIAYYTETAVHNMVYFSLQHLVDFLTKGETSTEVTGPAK
Protocol: as §1, §2, §3, §4, §5, §6

[5] = biological target: T3, hydroxy-acid dehydrogenase (enzyme solution) of L. casei ssp. pseudoplantarum DSM 20 008 (Lacticaseibacillus paracasei, UniProt P17584); experiment: as above; assay type: biochemical, Lactobacillus casei ssp. pseudoplantarum; details: 0.15 mM keto acid, 0.2 mM NADH, pH 7.0
T3 construct: the cells were disrupted by mechanical action, and the supernatant obtained by centrifugation was used as; endogenous in cells; host or cells: Lactobacillus casei ssp. pseudoplantarum DSM 20008, cell-free supernatant
T3 sequence (P17584 1-333): T2 sequence (P17584 1-333)
Protocol: as §1, §2, §3, §4, §5, §6

[6] = biological target: T4, D-α-hydroxyisocaproic dehydrogenase from Lactobacillus casei ssp. pseudoplantarum (DSM 20008) (Lacticaseibacillus paracasei, UniProt P17584); experiment: Enzymatic selectivity for KIC: initial reaction rates versus keto acid concentration (FIG. 1); assay type: biochemical; details: 0.1 unit of D-HicDH, 0.2 mM NADH, pH 7.0; keto acids 0.2 to 15 ωg/ml of assay mixture; relative to KMV and KIV
T4 construct: D-α-hydroxyisocaproic dehydrogenase from Lactobacillus casei ssp. pseudoplantarum (DSM 20008); endogenous in cells; host or cells: Lactobacillus casei ssp. pseudoplantarum DSM 20008 (enzyme isolated from the strain's own cells)
T4 sequence (P17584 1-333): T2 sequence (P17584 1-333)
From the text: This selectivity is illustrated in FIG. 1, which plots a measure of reaction rate (change per minute in absorption at 340 nm), in the presence of NADH and a Lactobacillus casei D-α-hydroxyisocaproicdehydrogenase, versus keto-acid concentration for KIC, KMV and KIV, respectively. In FIG. 1, .largecircle.--.largecircle. represents ketoisocaproate, O O represents ketomethylvalerate and .quadrature.----.quadrature. represents ketoisovalerate, respectively.
This entailed use of standard solutions of the three keto acids, each of known concentration (0.2 to 15 ωg/ml of assay mixture).
as §3, §4
stepped concentrations of keto acids.
The initial reaction rates (ΔA340 /min) were measured at 340 nm. […] This difference would be sufficient for a selective determination of KIC, for example, in serum.

[7] = test system: hydroxy-acid dehydrogenase (enzyme solution) of L. curvatus DSM 20 019; experiment: Selection of a suitable enzyme: initial reaction rate with keto acid, NADH absorption at 340 nm; assay type: biochemical; details: 0.15 mM keto acid, 0.2 mM NADH, pH 7.0
Protocol: as §7

Q: How did the initial reaction rate [1] turn out when `CC(C)CC(=O)C(=O)O` [KIC, α-ketoisocaproate] was run?
A: 0 IU/min

Q: And the initial reaction rate [2]?
A: 0.01 IU/min

Q: And the initial reaction rate [3]?
A: 0.64 IU/min

Q: And the initial reaction rate [4]?
A: 2.00 IU/min

Q: And the initial reaction rate [5]?
A: 1.37 IU/min

Q: What about the “detection sensitivity (initial rate ΔA340/min plotted against keto acid concentration)” value [6] of the same compound?
A: more than ten times better

Q: Which results are given for `CC(C)C(=O)C(=O)O` [KIV, ketoisovalerate]?
A: initial reaction rate [1]: 0 IU/min; initial reaction rate [2]: 0 IU/min; initial reaction rate [7]: 0.62 IU/min; initial reaction rate [3]: 0.11 IU/min; initial reaction rate [4]: 0.14 IU/min; initial reaction rate [5]: 0 IU/min

From patent US5264347A, “Method for the determination of α-ketoisocaproate in biological samples using D-α-hydroxyisocaproic dehydrogenase from lactobacillus casei” (Kernforschungsanlage Juelich GmbH, priority 1988, dated 1993)
